# Data taken from PubChem BioAssay AID504467 (National Center for Advancing Translational Sciences (NCATS), 2011).
# The campaign covered roughly 330,000 compounds. About 7,700 (2.3%) were called active. The inconclusive results got no clear call from the source; some entries with a clear call stand among them for comparison. Calls follow the shape of the dose curve; as a rule, active = well fitted inhibition curve with a large enough effect; inconclusive = small, poorly fitted or top-dose-only effect, or effect the other way; inactive = flat fitted curve, though single readings scatter. A potency beside an inconclusive call is a rough fit, not a confirmed value.
# Test: qHTS screen for small molecules that inhibit ELG1-dependent DNA repair in human embryonic kidney (HEK293T) cells expressing luciferase-tagged ELG1; also: nearly all actives have a fitted effect of over 55% in size
# Details: HEK293T ELG1-luciferase reporter, luminescence, 16 h, DNA damage induced by 5-fluorouridine; activity change, negative = inhibition: at 46.1 µM (top of the series)
# In short: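 Quantitative HTS, concentration-response format. 2,000 cells/well co-treated with 5-fluorouridine and compound, 16 hr in 5% CO2 at 37 °C; ONE-Glo luminescence read after 30 min.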
# % is scaled to controls: 0 for no effect and ±100 for the full control effect; potency is read from the fitted curve at half-maximal effect.
Compound,Potency,"activity change, negative = inhibition"
Cc1cc(S(=O)(=O)ON2C(=O)c3ccccc3C2=O)ccc1F,inactive,–
CCc1ccc(/C=N/N2CCN(c3ccccn3)CC2)cc1,"inconclusive: 8.2 µM [activator, partial curve]",–
CCc1ccc(CN(C)C(=O)CCc2nnc(CCc3cccc(OC)c3)o2)nc1,inactive,–
Cc1cc2oc(=O)cc(CN3CCN(C/C=C/c4ccccc4)CC3)c2cc1O,"inconclusive: 25.9 µM [inhibitor, single point]",–
O=C(CSc1ncn[nH]1)N/N=C/c1ccc(Br)cc1,inactive,–
O=C(N/N=C/c1ccc(F)cc1)c1cc(-c2ccc3c(c2)OCO3)n[nH]1,inactive,–
CC(C)Oc1ccc(C(=O)NCc2cccs2)cc1,"inconclusive: 20.6 µM [activator, partial curve]",–
CS(=O)(=O)N(CC(=O)N1CCN(c2cccc(Cl)c2)CC1)c1cccc(F)c1,inactive,–
Nc1nc(N)c2[nH]c(-c3ccccc3)nc2n1,"inconclusive: 25.9 µM [activator, single point]",–
O=C(CSc1nnc(SCc2ccc(Cl)cc2)s1)N1CCN(C(=O)c2ccco2)CC1,inactive,–
Cc1ccccc1C(=O)N1CCCC(CCC(=O)N2CCN(c3ccccn3)CC2)C1 (configuration not stated),inactive,–
CC(C)c1ccc(NC(=S)NC2CC3C=CC2C3)cc1 (configuration not stated),"inconclusive: 4.61 µM [activator, full curve]",–
CCOc1ccc2ncc(S(=O)(=O)c3ccccc3)c(N3CCN(c4ccc(OC)cc4)CC3)c2c1,active: 18.4 µM,–
Cc1cc(NC(=O)CCCN2C(=O)c3cccnc3C2=O)ccc1Br,inactive,–
Cc1cc(C)n2c(C)nnc2c1,"inconclusive: 4.61 µM [activator, partial curve, poor fit]",–
O=C(O)CC(CC(=O)N1CCN(C(=O)c2ccco2)CC1)c1ccccc1 (configuration not stated),inactive,–
CCn1c(=O)cc(SCC(=O)Nc2cccc(C)n2)c2ccccc21,"inconclusive: 29.1 µM [activator, single point]",–
O=C(OCCOc1cccc(Cl)c1)C1CCN(S(=O)(=O)c2ccccc2)CC1,inactive,–
Clc1ccc(OCCSCc2nc3ccccc3[nH]2)cc1,"inconclusive: 29.1 µM [inhibitor, single point]",–
COc1ccc2nc(N3C(=O)/C(=C/c4ccccc4)NC3=S)sc2c1,inactive,–
CCC(Sc1nc2cc(OC)c(OC)cc2c(=O)n1CCc1ccc(OC)c(OC)c1)C(=O)NCCOC (configuration not stated),active: 18.3 µM,–
Oc1c(Br)cc(Cl)cc1C=Nc1ccc(N2CCOCC2)cc1,"inconclusive: 18.3 µM [inhibitor, partial curve]",–
COc1cccc(C(=O)N/N=C/c2ccc(OC3CSC3)cc2)c1,inactive,–
Cc1ccnc(N2CCC(C(=O)Nc3ccc4c(c3)CCC4)CC2)n1,"inconclusive: 29.1 µM [inhibitor, single point]",–

# 5 compounds out of the list, sorted by number of heavy atoms, rising:
Compound,Potency,"activity change, negative = inhibition"
Clc1ccc(OCCSCc2nc3ccccc3[nH]2)cc1,"inconclusive: 29.1 µM [inhibitor, single point]",–
Oc1c(Br)cc(Cl)cc1C=Nc1ccc(N2CCOCC2)cc1,"inconclusive: 18.3 µM [inhibitor, partial curve]",–
COc1cccc(C(=O)N/N=C/c2ccc(OC3CSC3)cc2)c1,inactive,–
CCn1c(=O)cc(SCC(=O)Nc2cccc(C)n2)c2ccccc21,"inconclusive: 29.1 µM [activator, single point]",–
O=C(OCCOc1cccc(Cl)c1)C1CCN(S(=O)(=O)c2ccccc2)CC1,inactive,–

# (listing goes on)

Compound,Potency,"activity change, negative = inhibition"
CC(=O)c1ccc(N2CCN(C(=O)C3CCCN(c4ncnc5c4nc4n5CCCCC4)C3)CC2)cc1 (configuration not stated),active: 2.31 µM,–
O=C(c1ccc(N2CCCC2=O)cc1)N1CCN(c2ccccc2Cl)CC1,"inconclusive: 23.1 µM [inhibitor, single point]",–
CCc1nc(Nc2ccccc2)c2nnn(Cc3ccccc3)c2n1,"inconclusive: 23.1 µM [inhibitor, partial curve, poor fit]",–
Cc1cccc(NC(=S)NNC(=O)c2cc3c(s2)CCC(C)C3)c1C (configuration not stated),inactive,–
COc1ccc(Cl)cc1C(=O)NCCCn1ccnc1,–,inconclusive: 19% [activator]
Nc1cc(-c2ccccc2)nn1S(=O)(=O)c1ccc(F)cc1,"inconclusive: 20.6 µM [inhibitor, partial curve]",–
CN(C)c1ccc(/C=N/O)cc1,inactive,–
CCc1c(C)sc(NC(=O)c2cc(C)on2)c1C#N,"inconclusive: 20 µM [activator, single point]",–
CC1CC1C(=O)N1CCN(S(=O)(=O)c2cc(C(F)(F)F)cc(C(F)(F)F)c2)CC1 (configuration not stated),"inconclusive: 6.51 µM [inhibitor, single point]",–
CCN1CCN(c2ncc(C(=O)Nc3ccccc3C(=O)OC)c3ccccc23)CC1,inactive,–
Cc1cc(NCc2ccccn2)n2ncc(-c3ccccc3)c2n1,"inconclusive: 2.91 µM [activator, partial curve]",–
CCOC(=O)c1cc(-c2c(Cl)cccc2Cl)no1,active: 13 µM,–
COCCOC(=O)c1c(NC(=O)CSc2cccc[n+]2[O-])sc(C(N)=O)c1C,inactive,–
O=C1c2ccccc2C2NC(=O)C3(CCCCC3)N12 (configuration not stated),"inconclusive: 0.794 µM [inhibitor, single point]",–
CN(C)S(=O)(=O)N1CCC(Oc2ccc(C(=O)N3C[C@H]4CC[C@H]3C4)cc2)CC1,active: 13 µM,–
NS(=O)(=O)c1ccc(NC(=O)CN2CCCN(S(=O)(=O)c3ccc(F)cc3)CC2)cc1,"inconclusive: 18.3 µM [inhibitor, single point]",–
Cn1c(=O)c2c(nc(Br)n2CC(=O)C23CC4CC(CC(C4)C2)C3)n(C)c1=O,active: 14.6 µM,–
COc1ccc(CNC(=O)C2CCN(S(=O)(=O)c3ccc4c(c3)CC(C)N4C(C)=O)CC2)cc1 (configuration not stated),"inconclusive: 20.6 µM [inhibitor, single point]",–
C(/C=C/c1ccccc1)=N/N1CCN(c2ccccc2)CC1,"inconclusive: 8.2 µM [activator, partial curve]",–
CCC(=O)c1ccc(O)c(CC=C(C)C)c1,"inconclusive: 16.4 µM [inhibitor, partial curve, poor fit]",–
Brc1ccc(C2=NC(Cc3ccccc3)CO2)cc1 (configuration not stated),"inconclusive: 20.6 µM [activator, partial curve]",–
COc1ccc2[nH]c(=O)c(CN(Cc3cccs3)S(=O)(=O)c3c(C)ccc4nsnc34)cc2c1,"inconclusive: 3.26 µM [inhibitor, full curve, poor fit]",–
CCOc1cc2c(cc1OCC)C(c1ccc(OC)cc1)N(c1ccccc1)C(=O)C2 (configuration not stated),inactive,–
c1ccc(-c2nc(C3CCCCC3)c3ccccc3n2)cc1,"inconclusive: 15.8 µM [activator, single point]",–

Compound,Potency,"activity change, negative = inhibition"
O=C(O)CCC(=O)OCC1CCCO1 (configuration not stated),"inconclusive: 18.4 µM [activator, partial curve, poor fit]",–
Cc1cccc(NC(=O)Cc2ccc(Br)cc2)n1,"inconclusive: 11.2 µM [activator, partial curve]",–
O=C(NCCc1ccco1)C(=O)NCC1CCCN1S(=O)(=O)c1ccccc1 (configuration not stated),"inconclusive: 14.6 µM [inhibitor, partial curve]",–
COc1ccc(/C=C/C(=O)NCc2ccccn2)cc1,"inconclusive: 18.4 µM [activator, single point]",–
Cc1ccc(-c2noc(CN(C(=O)c3ccc4c(c3)OCO4)C(C)C)n2)cc1,inactive,–
COc1ccc(CCNC(=O)C/C(C)=N/NC(=O)c2cnccn2)cc1,"inconclusive: 13 µM [activator, single point]",–
O=C(NC1CCCCC1)N1CCc2[nH]c3ccccc3c2C1,"inconclusive: 20.6 µM [activator, single point]",–
CCC(=O)Nc1ccc(OC)cc1OC,inactive,–
COc1ccc(CNC(=O)c2cccc(NC(=O)c3ccccc3)c2)cc1,"inconclusive: 29.1 µM [inhibitor, single point]",–
CC(=O)COc1ccc2oc(=O)cc(-c3cc4ccccc4o3)c2c1,"inconclusive: 13 µM [inhibitor, partial curve, poor fit]",–
CC(=O)Nc1nc(-c2ccc3c(c2)CC(C)N3C(=O)C2CC2)c(C)s1 (configuration not stated),active: 8.2 µM,–
Cc1nnsc1C(=O)NNC(=O)c1ccc(C(F)(F)F)cc1,"inconclusive: 3.66 µM [activator, single point]",–
Nc1nc(SCc2ccccc2)c2[nH]cnc2n1,"inconclusive: 20.6 µM [activator, partial curve, poor fit]",–
O=C(Nc1ccc(C(=O)NC2CCCCC2)cc1)c1cccnc1,"inconclusive: 29.1 µM [inhibitor, single point]",–
CCn1cc(C(=O)OCC(=O)OC2CC(C)CCC2C(C)C)c(=O)c2ccc(C)nc21 (configuration not stated),"inconclusive: 20.6 µM [inhibitor, single point]",–
O=[N+]([O-])c1ccc(-c2nnc3n2CCCCC3)cc1,inactive,–
CC(=O)Nc1ccc(NC(=O)COc2ccc(S(=O)(=O)NC(C)c3ccccc3)cc2)cc1 (configuration not stated),"inconclusive: 23.1 µM [inhibitor, single point]",–
Cc1ccc(C(=O)Nc2ccc(N3CCOCC3)cc2N2CCOCC2)cc1,"inconclusive: 11.6 µM [inhibitor, partial curve, poor fit]",–
O=C(Cc1ccc([N+](=O)[O-])cc1)Nc1cccc(C(=O)N2CCCCC2)c1,"inconclusive: 23.1 µM [inhibitor, partial curve, poor fit]",–
Cc1csc(NC(=O)c2cc(C)oc2C)n1,"inconclusive: 5.17 µM [activator, partial curve]",–
COc1ccc(C)cc1NC(=O)c1ccc2c(=O)n3c(nc2c1)CCCCC3,"inconclusive: 1.83 µM [activator, partial curve, poor fit]",–
O=C(CCS(=O)(=O)c1cccs1)NC1CCCCCC1,"inconclusive: 20.6 µM [activator, partial curve]",–
CCOc1ccc(CCNC(=O)COC(=O)c2ccc[nH]c2=O)cc1OCC,"inconclusive: 29.1 µM [activator, single point]",–
O=C(Nc1nnc(C2CCCO2)s1)c1cccs1 (configuration not stated),"inconclusive: 23.1 µM [activator, single point]",–
